PubChem BioAssay AID1224830, NIAID | 2016

- Assay: 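Host factors that control LPS-induced TNF expression in human macrophages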 (primary screen)
- Cell system: human THP-1 monocytic leukaemia cells, TNF dual-luciferase reporter clone, PMA-differentiated to macrophage-like cells
- Reagents: siRNA pool against human genes, 50 nM
- Time to read-out: LPS for 4 h, given about 3 days after siRNA transfection
- Conditions: bacterial LPS (TLR4 ligand), 10 ng/ml
- Read-out: 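TNF firefly reporter luminescence divided by renilla, normalised to the plate median, then turned into a robust z-score for each replicate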
- Direction: TNF reporter robust z-score: higher = stronger TNF reporter response to LPS
- Hit rule: 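a well is active when its z-score exceeds 2.8 or falls below -1.5; control wells carry no call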
The deposit covers about 18,000 reagents; below is an unselected part. Over the whole deposit, about 2,900 (16%) were called active. 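Calls are made per well; low scores hint the gene aids the LPS response, high scores that it dampens it.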 A number with no mark means an inactive call. Repeated entries: four replicate wells of each siRNA pool.

{"gene symbol": "RERG", "TNF reporter robust z-score": -1.02}
{"gene symbol": "RERG", "TNF reporter robust z-score": -0.92}
{"gene symbol": "RERG", "TNF reporter robust z-score": -0.87}
{"gene symbol": "RERG", "TNF reporter robust z-score": -0.8}
{"gene symbol": "CHST6", "TNF reporter robust z-score": 1.52}
{"gene symbol": "CHST6", "TNF reporter robust z-score": -0.03}
{"gene symbol": "CHST6", "TNF reporter robust z-score": 1.26}
{"gene symbol": "CHST6", "TNF reporter robust z-score": 2.57}
{"gene symbol": "SLC4A3", "TNF reporter robust z-score": 1.13}
{"gene symbol": "SLC4A3", "TNF reporter robust z-score": 0.51}
{"gene symbol": "SLC4A3", "TNF reporter robust z-score": 0.17}
{"gene symbol": "SLC4A3", "TNF reporter robust z-score": 1.76}
{"gene symbol": "GABRA4", "TNF reporter robust z-score": -0.15}
{"gene symbol": "GABRA4", "TNF reporter robust z-score": -0.34}
{"gene symbol": "GABRA4", "TNF reporter robust z-score": -0.84}
{"gene symbol": "GABRA4", "TNF reporter robust z-score": -0.48}
{"gene symbol": "DDX52", "TNF reporter robust z-score": -0.34}
{"gene symbol": "DDX52", "TNF reporter robust z-score": 0.1}
{"gene symbol": "DDX52", "TNF reporter robust z-score": 0.42}
{"gene symbol": "DDX52", "TNF reporter robust z-score": 0.8}
{"gene symbol": "RECQL5", "TNF reporter robust z-score": 1.04}
{"gene symbol": "RECQL5", "TNF reporter robust z-score": 0.83}
{"gene symbol": "RECQL5", "TNF reporter robust z-score": 2}
{"gene symbol": "RECQL5", "TNF reporter robust z-score": 1.75}
{"gene symbol": "H4C12", "TNF reporter robust z-score": 2.38}
{"gene symbol": "H4C12", "TNF reporter robust z-score": 1.5}
{"gene symbol": "H4C12", "TNF reporter robust z-score": 0.89}
{"gene symbol": "H4C12", "TNF reporter robust z-score": 0.62}
{"gene symbol": "LRRC23", "TNF reporter robust z-score": 0.04}
{"gene symbol": "LRRC23", "TNF reporter robust z-score": -0.31}
{"gene symbol": "LRRC23", "TNF reporter robust z-score": 1.48}
{"gene symbol": "LRRC23", "TNF reporter robust z-score": 0.33}
{"gene symbol": "FAM199X", "TNF reporter robust z-score": -0.86}
{"gene symbol": "FAM199X", "TNF reporter robust z-score": -0.96}
{"gene symbol": "FAM199X", "TNF reporter robust z-score": -0.85}
{"gene symbol": "FAM199X", "TNF reporter robust z-score": -1.16}
{"gene symbol": "RPS6KB2", "TNF reporter robust z-score": 0.9}
{"gene symbol": "RPS6KB2", "TNF reporter robust z-score": -0.07}
{"gene symbol": "RPS6KB2", "TNF reporter robust z-score": 0.21}
{"gene symbol": "RPS6KB2", "TNF reporter robust z-score": 0.89}
{"gene symbol": "KCNH5", "TNF reporter robust z-score": -1.43}
{"gene symbol": "KCNH5", "TNF reporter robust z-score": -0.81}
{"gene symbol": "KCNH5", "TNF reporter robust z-score": -0.92}
{"gene symbol": "KCNH5", "TNF reporter robust z-score": -1.28}
{"gene symbol": "OR13C9", "TNF reporter robust z-score": 0.25}
{"gene symbol": "OR13C9", "TNF reporter robust z-score": -0.81}
{"gene symbol": "OR13C9", "TNF reporter robust z-score": -0.29}
{"gene symbol": "OR13C9", "TNF reporter robust z-score": 0.23}

Ordered by “TNF reporter robust z-score” (high to low): 3 of the entries above.
{"gene symbol": "LRRC23", "TNF reporter robust z-score": 1.48}
{"gene symbol": "LRRC23", "TNF reporter robust z-score": 0.04}
{"gene symbol": "LRRC23", "TNF reporter robust z-score": -0.31}
